The record followed here is PubChem BioAssay AID493014 (National Center for Advancing Translational Sciences (NCATS), 2011).

The other results are listed elsewhere or left out. These are further read-outs of the screen, such as a control signal, another cell line or another target. No call is given for them. Compounds called inactive in the main read-out are mostly missing here. Words in brackets tell the shape of the fitted curve; partial curves, single points and poor fits give uncertain potencies.

The nature of the experiment: qHTS Assay to Find Inhibitors of Chronic Active B-Cell Receptor Signaling. Conditions: ABC-DLBCL IkBa-CBG/CBR reporter, luminescence ratio (green luciferase fused to IkBa over red control in TMD8 lymphoma cells), 4 h. The essentials: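 Compounds up to 46 uM were incubated four hours with TMD8 cells whose green CBG68 luciferase is fused to IkappaBalpha; red CBR luminescence normalised the signal, and concentration-effect curves were fitted to fusion, red and ratio data.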

Setting [1] is: measured here: CBR red luminescence, cell number.
The mark [2] stands for this setting: measured here: IkBa-CBG green luminescence.

For orientation: AC50 means the concentration giving half of the maximal activity seen. Turning to `CCS(=O)(=O)N1CCN(S(=O)(=O)c2ccc3c(c2)OCCO3)CC1`, the half-maximal activity concentration (AC50) under setting [1] was 1 µM [falling, partial curve].

Regarding `CCCCC(=O)Nc1c(C)cc(C)cc1Cl`, the AC50 under setting [1] is 6.51 µM [rising, partial curve, poor fit]. Same read-out and setting: under `O=C(O)CSc1nnc(-c2ccncc2)n1Cc1ccccc1` stands 32.6 µM [falling, single point]; under `CC(C)(C)C(=O)N=C1SC2CS(=O)(=O)CC2N1c1ccc2c(c1)OCO2` (centres undefined), 6.51 µM [rising, partial curve, poor fit]; under `O=C(CSc1nc2ccccc2s1)N/N=C/c1ccco1`, 5.8 µM [rising, partial curve, poor fit]. For `CS(=O)(=O)NCCCCCCNS(C)(=O)=O`, the concentration at half-maximal activity (AC50) under setting [1] is 14.1 µM [falling, partial curve]. For the compound `Cc1cc2c(s1)c1c(C)nn(Cc3ccccc3F)c(=O)c1n2C`, the AC50 under setting [1] is 7.31 µM [falling, partial curve, poor fit]. Regarding `CCn1c2ccccc2c2nnc(SCC(=O)NC3CCS(=O)(=O)C3)nc21` (centres undefined), the AC50 under setting [1] was 32.6 µM [rising, partial curve, poor fit].

For the compound `N#C/C(=C\c1cccc(OC(=O)c2cccs2)c1)C(N)=O`, under setting [1], the AC50 is 2.31 µM [rising, partial curve, poor fit]. Turning to `COCCOC1CCN(C(=O)C2CCC(=O)N(CCc3ccc(OC)cc3)C2)CC1` (centres undefined), under setting [1], the half-maximal activity concentration (AC50) is 6.31 µM [rising, single point].

Consider `COC(=O)CSc1nc(C)cc(C)c1C#N`, for which the AC50 under setting [2] is 3.55 µM [rising, full curve, poor fit]. Regarding `CCOC(=O)c1cc(NC(=O)c2ccoc2C)cc(C(=O)OCC)c1`, the AC50 under setting [1] is 29.1 µM [falling, single point]. Consider `O=C(/C=C/c1cccs1)Nc1ccc(N2CCOCC2)c(S(=O)(=O)Nc2ccccc2Cl)c1`, for which the AC50 under setting [1] is 10.3 µM [falling, partial curve, poor fit]. On the same count and under the same terms, under `CCOC(=O)c1ccccc1NC(=O)CSc1nc(=O)[nH]c2c1CCC2` stands 3.55 µM [falling, partial curve, poor fit]. On to `Cc1c(/C=N/NC(=O)c2sc3ccccc3c2Cl)cnn1C`, for which the AC50 under setting [1] is 2.82 µM [falling, partial curve, poor fit]. In the case of `CN(C)c1nc(N)nc(CSc2nnnn2-c2ccc(C(=O)O)cc2)n1`, the AC50 under setting [1] was 16.4 µM [rising, partial curve, poor fit]. As to `COc1ccc(/C=C(/NC(=O)c2ccccc2)C(=O)N/N=C/c2cccs2)cc1OC`, under setting [1], the AC50 was 3.55 µM [rising, partial curve, poor fit]. On to `O=C(CSc1nc(O)cc(=O)n1-c1ccccc1)Nc1ccc(Br)cn1`, for which the concentration at half-maximal activity (AC50) under setting [2] was 14.1 µM [rising, partial curve, poor fit]. As for `O=C1C=C(O)c2cccc(O)c2C1=O`, under setting [1], the half-maximal activity concentration (AC50) is 6.31 µM [falling, partial curve, poor fit].

On to `O=[N+]([O-])c1ccccc1NC(=S)N/N=C/c1ccc(O)c(O)c1`, for which the AC50 under setting [1] was 0.891 µM [falling, full curve, poor fit]. Still for that read-out and setting: next, `NC(=O)COc1ccccc1/C=C1/SC(=O)N(CC(=O)N2CCc3ccccc3C2)C1=O`: 14.1 µM [falling, partial curve, poor fit]. `O=C(Nc1ccc(F)cc1)N1CCCN(c2nccc(C(F)(F)F)n2)CC1`: the AC50 under setting [1] was 28.2 µM [falling, single point]. On the same count and under the same terms, under `Nc1cc(Cl)nc(N/N=C/c2ccccc2[N+](=O)[O-])n1` stands 11.2 µM [falling, partial curve, poor fit]; under `COc1ccc(OCc2cc(C(=O)N3C[C@@H](C)O[C@@H](C)C3)no2)c(Cl)c1`, 12.6 µM [rising, partial curve, poor fit]; under `Cc1cc(C)c(C)c(OC(=O)c2sc(Cl)nc2C)c1`, 23.1 µM [falling, single point]. The same measure, in the same setting: next, `Cc1ccc(NC(=O)c2cc([N+](=O)[O-])ccc2NCc2cccnc2)cc1Cl`: 7.08 µM [falling, full curve, poor fit]. The same measure, in the same setting: next, `CCCNC(=O)COC(=O)C1CCN(S(=O)(=O)c2ccc3c(c2)OCCO3)CC1`: 32.6 µM [rising, partial curve, poor fit]. With `Cc1nnc2n1N=CC=C(c1ccccc1)S2`, the half-maximal activity concentration (AC50) under setting [1] is 32.6 µM [falling, single point]. In the case of `CC(=O)c1ccc2c(c1)C1C=CCC1C(c1cc3c(cc1Br)OCO3)N2` (centres undefined), the AC50 under setting [2] was 23.1 µM [falling, single point]. For `O=c1oc2ccccc2c(N2CCCC2)c1CN1CCCC1`, under setting [1], the AC50 is 1.46 µM [falling, partial curve, poor fit]. `CCc1cc2c(=O)n(Cc3ccco3)c(SCC(=O)N(C)C3CCS(=O)(=O)C3)nc2s1` (centres undefined): under setting [1], the AC50 is 5.62 µM [falling, partial curve]. Take `O=C(c1cccn2c(=O)c3cc(Cl)ccc3nc12)N1CCN(c2ccccc2F)CC1`: the half-maximal activity concentration (AC50) under setting [1] was 3.55 µM [falling, partial curve, poor fit]. The same measure, in the same setting: next, `CC1CCN(c2ccc(C(=O)O)cc2NS(=O)(=O)c2ccc(Br)cc2)CC1`: 25.9 µM [rising, single point]; `CCNc1nc(SCC(=O)Nc2ccc(Cl)c(Cl)c2)nc(N(C)C)n1`: 0.501 µM [rising, full curve, poor fit].

In the case of `CCCCOc1ccc(C(=O)N2CCCC2)cc1`, under setting [1], the AC50 is 3.66 µM [rising, full curve, poor fit].

With `CC(C)C(NC(=O)C(c1ccccc1)c1ccccc1)c1nc2ccccc2[nH]1` (centres undefined), the AC50 under setting [1] is 18.4 µM [rising, partial curve, poor fit]. For the compound `COc1ccc(C)cc1Nc1n[n+](-c2ccccc2)c(-c2c(Cl)cccc2Cl)s1`, the AC50 under setting [1] is 17.8 µM [falling, single point]. As for `C/C(CC(=O)Nc1cc(C)ccn1)=N\NC(=O)c1ccc(C)cc1`, the concentration at half-maximal activity (AC50) under setting [1] was 7.94 µM [falling, partial curve, poor fit]. On to `Clc1ccc(CSc2nncn2-c2ccccn2)cc1`, for which the AC50 under setting [1] is 25.9 µM [rising, single point]. As to `CCc1ccc(NC(=O)N2CCN(c3ccc(F)cc3)CC2)cc1`, the AC50 under setting [1] is 0.708 µM [rising, full curve, poor fit]. For `CCOc1ccccc1NC(=O)CCC(=O)Nc1ccccc1OCC`, the AC50 under setting [1] is 0.651 µM [falling, partial curve, poor fit]. `CS(=O)(=O)N(Cc1nc(-c2ccc(F)cc2)no1)c1ccccc1Cl`: under setting [1], the AC50 was 8.2 µM [falling, partial curve, poor fit]. As to `COc1ccccc1CCC(=O)Nc1ncc(C)s1`, under setting [1], the AC50 was 11.2 µM [falling, single point]. Regarding `COc1ccc(NC(=O)C/C(C)=N/NC(=O)C(=O)NC(C)C)c(OC)c1`, the concentration at half-maximal activity (AC50) under setting [1] was 2 µM [rising, full curve, poor fit]. Still for that read-out and setting: next, `O=C(Nc1nc(-c2ccccc2)cs1)C1CCCCN1S(=O)(=O)c1ccccc1` (centres undefined): 0.82 µM [falling, full curve, poor fit]; `CN(C)S(=O)(=O)c1ccc(N2CCOCC2)c(C(=O)O)c1`: 3.66 µM [rising, single point]; `O=C(N/N=C/c1c[nH]c2ccccc12)c1ccc2c(c1)OCCO2`: 8.91 µM [falling, partial curve]. Still for that read-out and setting: under `COC(=O)c1ccc(OC(=O)/C=C/c2ccco2)cc1` stands 11.2 µM [rising, partial curve, poor fit]; under `O=C(NCC1CCCO1)C1CCCN(Cc2cnn(-c3ccccc3)c2-n2cccc2)C1` (centres undefined), 29.1 µM [rising, single point].

`CCOC(=O)/C(C#N)=C\c1c(OCC)n(CC)c2ccccc12`: the AC50 under setting [2] is 25.9 µM [rising, partial curve, poor fit]. For `Cc1cccc(C(=O)Nc2nnc(Cc3ccccc3)s2)c1`, under setting [1], the AC50 is 35.5 µM [falling, partial curve, poor fit]. Same read-out and setting: under `Cc1cc(C)c(C#N)c(OCC(=O)c2ccccc2)n1` stands 3.16 µM [rising, partial curve]. Consider `CCOC(=O)CNC(=O)c1c(C)nn(-c2ccccc2)c1Cl`, for which, under setting [1], the AC50 was 6.51 µM [rising, partial curve, poor fit]. On the same count and under the same terms, under `Cc1cc(C(=O)COC(=O)c2ccc(Br)o2)c(C)n1Cc1ccco1` stands 8.91 µM [rising, partial curve, poor fit]. Regarding `Cc1noc(C)c1COC(=O)/C=C/c1ccc(Cl)cc1`, the AC50 under setting [1] is 15.8 µM [rising, single point]. As for `CSc1ccccc1C(=O)NC1CC2CCC1C2` (centres undefined), under setting [1], the AC50 was 6.51 µM [falling, single point]. For the compound `CN(C)CCNC(=O)c1[nH]nc2c1CCc1ccccc1-2`, the AC50 under setting [1] is 25.1 µM [falling, partial curve, poor fit]. With `COC(=O)[C@H](Cc1ccccc1)NC(=O)NCCc1ccc(OC)cc1`, the AC50 under setting [1] was 1.26 µM [rising, full curve, poor fit]. Still for that read-out and setting: next, `CC(Nc1ccc(Br)cc1)C(=O)Nc1cccc(S(=O)(=O)N2CCOCC2)c1` (centres undefined): 16.4 µM [falling, single point].

As to `CCOc1cccc2cc(C(=O)OCC(=O)Nc3c(C)cccc3CC)c(=O)oc12`, the AC50 under setting [1] was 11.6 µM [falling, partial curve, poor fit]. As for `CCOc1ccc(CC(=O)Nc2c(C(N)=O)oc3ccccc23)cc1OCC`, the concentration at half-maximal activity (AC50) under setting [1] was 1.03 µM [falling, full curve]. For the compound `CCOC(=O)CC(=O)CSCC(=O)Nc1ccc(C)cc1`, the concentration at half-maximal activity (AC50) under setting [1] was 20.6 µM [falling, single point]. `COc1ccc(C(C(=O)NC2CCCCC2)N(C(=O)c2ccco2)c2ccccc2OC)cc1` (centres undefined): under setting [1], the AC50 was 3.98 µM [falling, partial curve, poor fit].

As to `COc1ccc(C2CC(=O)N3CN(c4ccccc4F)CSC3=C2C#N)cc1OC` (centres undefined), the AC50 under setting [1] is 2.91 µM [rising, single point].
